{
  "source": "PubChem BioAssay AID540276",
  "about": "(National Center for Advancing Translational Sciences (NCATS), 2011)",
  "note": "Among all 300,000 compounds or so, about 5,400 (1.8%) were called active. The shares of active, inactive and inconclusive entries below differ from those in the screen. Calls follow the shape of the full dose curve; tested in HEK293 cells. A potency beside an inconclusive call is a rough fit, not a confirmed value. % is scaled to controls: 0 for no effect and ±100 for the full control effect; potency is read from the fitted curve at half-maximal effect.",
  "data": [
    {"test": "qHTS for inhibitors of binding or entry into cells for Marburg Virus", "conditions": "Marburg virus pseudotyped entry inhibition, cell reporter; activity change, negative = inhibition: at 37.8 µM (top of the series) unless noted", "values": [
      {"smiles": "COc1ccccc1C(=O)Nc1ccc(Br)cc1C", "Potency": "inconclusive: 5.62 µM [activator, single point]"},
      {"smiles": "O=C(NCc1ccccc1F)c1ccc2c(c1)OCO2", "activity change, negative = inhibition": "inactive: 15%"},
      {"smiles": "Cc1ccccc1NC(=O)CSc1nc(=O)n(CCN2CCOCC2)c2c1CCCC2", "Potency": "inconclusive: 0.708 µM [inhibitor, single point]"},
      {"smiles": "COC(=O)C1=C(C)NC(=O)/C1=C\\c1cccs1", "activity change, negative = inhibition": "inactive: -12.4%"},
      {"smiles": "CCOC(=O)C1=C(C)N=C2c3ccccc3C(=O)C2C1c1ccc(C)cc1", "note": "(centres undefined)", "Potency": "inconclusive: 7.94 µM [inhibitor, partial curve]"},
      {"smiles": "CCOP(=O)(c1ccc(N(C)C)cc1)C(O)c1ccccc1", "note": "(centres undefined)", "Potency": "inconclusive: 0.651 µM [inhibitor, full curve, poor fit]"},
      {"smiles": "Cc1cc(NC(=O)c2cccc(S(=O)(=O)N3CCOCC3)c2)c2ccccc2n1", "Potency": "inconclusive: 20 µM [inhibitor, single point]"},
      {"smiles": "CCOc1ccc(OCCOc2cccc(C(F)(F)F)c2)cc1", "activity change, negative = inhibition": "inconclusive: 36.2% [activator]"},
      {"smiles": "COc1cc(/C=C(\\C#N)C(=O)NCC2CCCO2)ccc1OC(=O)c1ccco1", "note": "(centres undefined)", "Potency": "inconclusive: 3.98 µM [activator, partial curve, poor fit]"},
      {"smiles": "CC1(C)CC(=O)c2cnc(NCC3CCCO3)nc2C1", "note": "(centres undefined)", "Potency": "inconclusive: 1.26 µM [activator, full curve]"},
      {"smiles": "CC(=O)c1ccc(NC(=O)C2C3CCC(C3)C2C(=O)O)cc1", "note": "(centres undefined)", "Potency": "inconclusive: 11.2 µM [activator, partial curve, poor fit]"},
      {"smiles": "COc1cc(N)c2ncccc2c1Cl", "activity change, negative = inhibition": "inactive: -2.37% [at 46.1 µM]"},
      {"smiles": "CCCCCOc1ccc(C(O)C(CN2CCOCC2)c2ccccc2)cc1", "note": "(centres undefined)", "Potency": "inconclusive: 35.5 µM [inhibitor, single point]"},
      {"smiles": "CCNC(=O)NCc1c(C)c(C)n(Cc2ccccc2)c1-n1cccc1", "Potency": "inconclusive: 3.16 µM [inhibitor, single point]"},
      {"smiles": "O=C1Nc2cc(C(=O)N3CCc4ccccc4C3)ccc2S/C1=C\\c1ccccc1", "Potency": "inconclusive: 0.891 µM [activator, partial curve, poor fit]"},
      {"smiles": "O=S(=O)(c1cccs1)N1CCN(c2ccccc2)CC1", "activity change, negative = inhibition": "inactive: -0.65% [at 46.1 µM]"},
      {"smiles": "O=C(C(Cl)c1ccccc1)N1CCCC1", "note": "(centres undefined)", "Potency": "inconclusive: 35.5 µM [inhibitor, single point]"},
      {"smiles": "COc1ccc(C(=O)CNc2ccccc2CO)cc1", "Potency": "inconclusive: 14.1 µM [inhibitor, single point]"},
      {"smiles": "COc1ccc(-n2c(CC3C(=O)Nc4ccc(C)cc43)nc3ccccc3c2=O)cc1", "note": "(centres undefined)", "activity change, negative = inhibition": "inactive: -7.13% [at 46.1 µM]"},
      {"smiles": "Cc1ccc2nc(SCn3nnc4ccccc4c3=O)[nH]c2c1", "Potency": "inconclusive: 35.5 µM [inhibitor, single point]"},
      {"smiles": "COc1cc(CNCCO)ccc1OCCc1ccccc1", "Potency": "inconclusive: 35.5 µM [inhibitor, single point]"},
      {"smiles": "CC(C)(C)c1cc(NC(=O)CCSc2nnc3ccccn23)cc(C(C)(C)C)c1", "Potency": "inconclusive: 20.6 µM [inhibitor, single point]"},
      {"smiles": "CCOc1ccc(CCNC(=O)COC(=O)/C=C/c2ccc(C)o2)cc1OCC", "activity change, negative = inhibition": "inactive: 16% [at 46.1 µM]"},
      {"smiles": "CC(C)(C)c1cc(C(=O)N/N=C/c2ccco2)n[nH]1", "activity change, negative = inhibition": "inactive: 5.35%"},
      {"smiles": "O=C(O)CNC(=S)N(Cc1ccccc1Cl)C1CCCC1", "Potency": "inconclusive: 15.8 µM [activator, single point]"},
      {"smiles": "O=C(CNC(=O)c1ccccc1F)NCCc1ccc(Cl)cc1", "Potency": "inconclusive: 35.5 µM [activator, single point]"},
      {"smiles": "O=C(CN1c2cccc3cccc(c23)S1(=O)=O)Nc1cccc(S(=O)(=O)N2CCOCC2)c1", "Potency": "inconclusive: 8.2 µM [inhibitor, partial curve]"},
      {"smiles": "NC(N)=N/N=C/c1cc([N+](=O)[O-])ccc1O", "Potency": "inconclusive: 29.1 µM [activator, single point]"},
      {"smiles": "Cc1ccc(S(=O)(=O)NCc2csc(C)n2)cc1", "activity change, negative = inhibition": "inactive: -12.9% [at 46.1 µM]"},
      {"smiles": "Cc1nc(SCC(=O)N2CCOCC2)c2c3c(sc2n1)CCC3", "Potency": "inconclusive: 1.26 µM [inhibitor, partial curve, poor fit]"},
      {"smiles": "CC1=NN(c2nc(-c3ccc(C)cc3)cs2)C(=O)C1N=Nc1ccc(C(N)=O)cc1", "note": "(centres undefined)", "Potency": "active: 6.51 µM"},
      {"smiles": "CC(=O)NCCC(=O)N1CCCC(CNC(=O)c2ccc(-c3ccccc3)cc2)C1", "note": "(centres undefined)", "activity change, negative = inhibition": "inactive: 15.3% [at 46.1 µM]"},
      {"smiles": "COc1ccc(NC(=O)CC(C)C)c(OC)c1", "Potency": "inconclusive: 14.1 µM [activator, partial curve, poor fit]"},
      {"smiles": "O=C(c1ccc(-n2cccc2)cc1)N1CCOCC1", "activity change, negative = inhibition": "inactive: 17.8%"},
      {"smiles": "Cc1ccc(S(=O)(=O)Nc2ccccc2CNc2ccccn2)cc1", "activity change, negative = inhibition": "inactive: -2.62%"},
      {"smiles": "O=C(CC1CCCCC1)Nc1c2c(nn1-c1ccc(F)cc1)CS(=O)(=O)C2", "Potency": "inconclusive: 0.58 µM [inhibitor, partial curve, poor fit]"},
      {"smiles": "Cc1cnc(C(=O)OCc2ccc(COC(=O)c3cnc(C)cn3)cc2)cn1", "Potency": "inconclusive: 7.94 µM [activator, partial curve, poor fit]"},
      {"smiles": "COc1ccccc1CNC(=O)c1oc2ccc(S(=O)(=O)N3CCOCC3)cc2c1C", "Potency": "inconclusive: 35.5 µM [inhibitor, single point]"},
      {"smiles": "CC1=C(c2ccc(C(C)C)cc2)S(=O)(=O)NC1=NCc1ccc(OC(C)C)cc1", "activity change, negative = inhibition": "inactive: 0.382% [at 46.1 µM]"},
      {"smiles": "Fc1cccc(CSc2nc3ncc(Cl)cc3[nH]2)c1", "activity change, negative = inhibition": "inactive: -3.96% [at 46.1 µM]"},
      {"smiles": "COc1ccc(CCNC[C@@H](O)c2ccc(O)cc2)cc1OC", "Potency": "inconclusive: 3.55 µM [inhibitor, partial curve]"},
      {"smiles": "CCSc1nc2sc3c(c2c(=O)n1-c1ccc(OC)cc1)CCN(C)C3", "Potency": "inconclusive: 35.5 µM [inhibitor, single point]"},
      {"smiles": "Fc1ccc(-c2csc(N3CCC(c4ccccc4)C3)n2)cc1", "note": "(centres undefined)", "Potency": "inconclusive: 35.5 µM [inhibitor, single point]"},
      {"smiles": "COc1ccc(NC(=O)CCCS(=O)(=O)c2nc(-c3ccccc3OC)cc(C(F)(F)F)n2)c(OC)c1", "Potency": "inconclusive: 22.4 µM [inhibitor, single point]"},
      {"smiles": "CC(=O)c1ccc(NC(=O)C(C)OC(=O)c2ccc3c(c2)nc(C)n3-c2ccccc2)cc1", "note": "(centres undefined)", "Potency": "inconclusive: 35.5 µM [inhibitor, single point]"},
      {"smiles": "CCOC(=O)C1=C(C)N=c2s/c(=C/c3ccco3)c(=O)n2C1c1cccc(OC)c1", "note": "(centres undefined)", "Potency": "inconclusive: 35.5 µM [inhibitor, single point]"},
      {"smiles": "CC1=NN(C(=O)COc2ccccc2C)C(O)(c2ccc(Cl)cc2)C1", "note": "(centres undefined)", "Potency": "inconclusive: 35.5 µM [activator, single point]"},
      {"smiles": "Cc1nc([N+](=O)[O-])c(Br)n1CC(=O)c1ccc(F)cc1", "Potency": "inconclusive: 11.2 µM [inhibitor, partial curve, poor fit]"},
      {"smiles": "N#Cc1nc(-c2cccc3ccccc23)oc1N1CCCCC1", "Potency": "inconclusive: 10 µM [activator, partial curve]"},
      {"smiles": "O=C(Nc1ccccc1)N1CCCC1", "activity change, negative = inhibition": "inactive: 10.5%"},
      {"smiles": "Cc1ccccc1-c1nc(-c2ccc(NC(=O)c3cccs3)cc2)no1", "Potency": "inconclusive: 35.5 µM [inhibitor, single point]"},
      {"smiles": "Cc1cccn2c(=O)c3c(nc12)N1CCCCCC1C1(C3)C(=O)N(C)C(=O)N(C)C1=O", "note": "(centres undefined)", "Potency": "inconclusive: 1 µM [inhibitor, full curve, poor fit]"},
      {"smiles": "COC(=O)C(CC(C)C)NC(=O)c1ccc(F)cc1", "note": "(centres undefined)", "Potency": "inconclusive: 0.184 µM [activator, full curve, poor fit]"},
      {"smiles": "CCN(C(=O)Cn1c(=O)n(Cc2ccccc2)c(=O)c2ccccc21)c1cccc(C)c1", "Potency": "inconclusive: 35.5 µM [inhibitor, partial curve, poor fit]"},
      {"smiles": "COc1cccc(COC(=O)C2CCN(C(=O)c3ccc(F)cc3)CC2)c1OC", "Potency": "inconclusive: 11.2 µM [activator, partial curve]"},
      {"smiles": "COc1ccc(-n2cc(CNCc3cccnc3)c(-c3cccc(F)c3)n2)cc1", "Potency": "inconclusive: 25.1 µM [inhibitor, single point]"},
      {"smiles": "COc1ccc(CCn2c(C)cc(C(=O)CSc3nc(N)cc(=O)[nH]3)c2C)cc1", "Potency": "inconclusive: 29.1 µM [inhibitor, single point]"},
      {"smiles": "CCc1ccc(C2c3c(-c4cc(C)ccc4O)n[nH]c3C(=O)N2CCO)cc1", "note": "(centres undefined)", "Potency": "inconclusive: 22.4 µM [inhibitor, single point]"},
      {"smiles": "CCCn1cnc2scc(-c3ccc(OC)cc3)c2c1=O", "Potency": "inconclusive: 0.126 µM [inhibitor, full curve, poor fit]"},
      {"smiles": "Cc1ccccc1-n1c(SC2CCOC2=O)nnc1-c1ccncc1", "note": "(centres undefined)", "activity change, negative = inhibition": "inactive: -3.33% [at 46.1 µM]"},
      {"smiles": "Cc1ccc(C)c(C(=O)CN2Cc3ccccc3C2=O)c1", "activity change, negative = inhibition": "inactive: -9.41%"},
      {"smiles": "COc1ccccc1N(CC(O)Cn1c(C)nc2ccccc21)S(=O)(=O)c1ccccc1", "note": "(centres undefined)", "Potency": "inconclusive: 35.5 µM [inhibitor, partial curve, poor fit]"},
      {"smiles": "O=C1/C(=C/c2cccs2)SC(=S)N1N1CCOCC1", "activity change, negative = inhibition": "inactive: -7% [at 46.1 µM]"},
      {"smiles": "FC(F)(F)c1ccncc1-c1nnnn1-c1ccc(Cl)cc1", "Potency": "inconclusive: 12.6 µM [inhibitor, single point]"},
      {"smiles": "CCn1c(SCC(=O)N(C)C2CCS(=O)(=O)C2)nnc1-c1cccs1", "note": "(centres undefined)", "Potency": "inconclusive: 2.82 µM [inhibitor, partial curve, poor fit]"},
      {"smiles": "CCCCC1=NN(C(=O)c2ccncc2)C(O)(C(F)(F)F)C1", "note": "(centres undefined)", "Potency": "inconclusive: 0.708 µM [inhibitor, single point]"},
      {"smiles": "Cc1nn(-c2ccccc2)c(Oc2ccccc2)c1C=O", "Potency": "inconclusive: 16.4 µM [inhibitor, single point]"},
      {"smiles": "O=C(CSc1nnnn1-c1ccc(F)cc1)c1ccc(O)c(O)c1", "activity change, negative = inhibition": "inactive: -13.7% [at 46.1 µM]"},
      {"smiles": "O=c1[nH]c(=S)[nH]cc1Oc1ccc(Br)cc1Br", "Potency": "inconclusive: 20 µM [inhibitor, single point]"}
    ]}
  ]
}
